Assay results from patent US9518166B2, “Film forming auxiliary agent composition for emulsion resin” (ADEKA CORPORATION, priority 2013, dated 2016).

How the values were obtained:
Assay type in all cases: physicochemical
[1] = Test 4: water resistance test of coating film; details: 5 mass % in resin 1, 75-μm film on glass, warm water 50° C., checked hourly up to 12 hrs; not whitened after 12 hrs = passed
[2] = Test 1: minimum film forming temperature (MFT), resin 1; details: 5 mass % in resin 1, 75 μm coating film, observed after 1 h
[3] = Test 1: minimum film forming temperature (MFT), resin 2; details: 5 mass % in resin 2, 75 μm coating film, observed after 1 h

Structure (SMILES) | Test 4: water resistance, time to whitening of coating film [1] | Test 1: minimum film forming temperature (MFT) [2] | Test 1: minimum film forming temperature (MFT) [3]
CCCCOCCO [Comparative Product 10, butyl cellosolve] | Passed the test | 29.3 °C | 30.3 °C
CN1CCCC1=O [Comparative Product 11, N-methylpyrrolidone] | 10 h | 24.2 °C | 26.3 °C
